Reference: publication doi:10.1101/2020.08.03.234229
No constants are given. Whether binding was seen depends on the method and setting. For some assays here: Binding seen in cells or lysates may run through a third protein. Some results given as binding are weak or reduced against the parent protein; the word gives no strength. For some assays here: Where a sequence is shown, tags or fusion partners need not be part of it.

T1: His6-TSEN15, expressed in HEK293 cells (human) (UniProt Q8WW01)
T1 sequence: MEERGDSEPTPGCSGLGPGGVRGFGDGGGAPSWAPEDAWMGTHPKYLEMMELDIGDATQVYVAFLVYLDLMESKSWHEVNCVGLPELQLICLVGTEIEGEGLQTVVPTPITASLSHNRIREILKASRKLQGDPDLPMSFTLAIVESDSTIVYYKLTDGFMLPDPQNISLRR

T2: tRNA splicing endonuclease subunit TSEN15 (human) (UniProt Q8WW01)
T2 sequence: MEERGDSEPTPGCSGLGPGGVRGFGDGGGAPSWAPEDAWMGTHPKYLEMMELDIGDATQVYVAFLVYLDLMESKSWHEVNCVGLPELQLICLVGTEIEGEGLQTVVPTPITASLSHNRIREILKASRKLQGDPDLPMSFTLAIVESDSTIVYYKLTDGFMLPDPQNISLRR

B1: TSEN2, expressed in HEK293 cells (protein, UniProt Q8NCE0 1-465)
chain: MAEAVFHAPKRKRRVYETYESPLPIPFGQDHGPLKEFKIFRAEMINNNVIVRNAEDIEQLYGKGYFGKGILSRSRPSFTISDPKLVAKWKDMKTNMPIITSKRYQHSVEWAAELMRRQGQDESTVRRILKDYTKPLEHPPVKRNEEAQVHDKLNSGMVSNMEGTAGGERPSVVNGDSGKSGGVGDPREPLGCLQEGSGCHPTTESFEKSVREDASPLPHVCCCKQDALILQRGLHHEDGSQHIGLLHPGDRGPDHEYVLVEEAECAMSEREAAPNEELVQRNRLICRRNPYRIFEYLQLSLEEAFFLVYALGCLSIYYEKEPLTIVKLWKAFTVVQPTFRTTYMAYHYFRSKGWVPKVGLKYGTDLLLYRKGPPFYHASYSVIIELVDDHFEGSLRRPLSWKSLAALSRVSVNVSKELMLCYLIKPSTMTDKEMESPECMKRIKVQEVILSRWVSSRERSDQDDL
B2: TSEN34, expressed in HEK293 cells (protein, UniProt Q9BSV6 1-310)
chain: MLVVEVANGRSLVWGAEAVQALRERLGVGGRTVGALPRGPRQNSRLGLPLLLMPEEARLLAEIGAVTLVSAPRPDSRHHSLALTSFKRQQEESFQEQSALAAEARETRRQELLEKITEGQAAKKQKLEQASGASSSQEAGSSQAAKEDETSDGQASGEQEEAGPSSSQAGPSNGVAPLPRSALLVQLATARPRPVKARPLDWRVQSKDWPHAGRPAHELRYSIYRDLWERGFFLSAAGKFGGDFLVYPGDPLRFHAHYIAQCWAPEDTIPLQDLVAAGRLGTSVRKTLLLCSPQPDGKVVYTSLQWASLQ
B3: TSEN2 Y309C (PCH mutation), expressed in HEK293 cells (protein, UniProt Q8NCE0 1-465)
chain: MAEAVFHAPKRKRRVYETYESPLPIPFGQDHGPLKEFKIFRAEMINNNVIVRNAEDIEQLYGKGYFGKGILSRSRPSFTISDPKLVAKWKDMKTNMPIITSKRYQHSVEWAAELMRRQGQDESTVRRILKDYTKPLEHPPVKRNEEAQVHDKLNSGMVSNMEGTAGGERPSVVNGDSGKSGGVGDPREPLGCLQEGSGCHPTTESFEKSVREDASPLPHVCCCKQDALILQRGLHHEDGSQHIGLLHPGDRGPDHEYVLVEEAECAMSEREAAPNEELVQRNRLICRRNPYRIFEYLQLSLEEAFFLVCALGCLSIYYEKEPLTIVKLWKAFTVVQPTFRTTYMAYHYFRSKGWVPKVGLKYGTDLLLYRKGPPFYHASYSVIIELVDDHFEGSLRRPLSWKSLAALSRVSVNVSKELMLCYLIKPSTMTDKEMESPECMKRIKVQEVILSRWVSSRERSDQDDL
B4: TSEN34 H255A (active site mutant) (protein, UniProt Q9BSV6 1-310)
chain: MLVVEVANGRSLVWGAEAVQALRERLGVGGRTVGALPRGPRQNSRLGLPLLLMPEEARLLAEIGAVTLVSAPRPDSRHHSLALTSFKRQQEESFQEQSALAAEARETRRQELLEKITEGQAAKKQKLEQASGASSSQEAGSSQAAKEDETSDGQASGEQEEAGPSSSQAGPSNGVAPLPRSALLVQLATARPRPVKARPLDWRVQSKDWPHAGRPAHELRYSIYRDLWERGFFLSAAGKFGGDFLVYPGDPLRFAAHYIAQCWAPEDTIPLQDLVAAGRLGTSVRKTLLLCSPQPDGKVVYTSLQWASLQ
B5: TSEN2 Y309C (PCH mutation), from insect cells (protein, UniProt Q8NCE0 1-465)
chain: MAEAVFHAPKRKRRVYETYESPLPIPFGQDHGPLKEFKIFRAEMINNNVIVRNAEDIEQLYGKGYFGKGILSRSRPSFTISDPKLVAKWKDMKTNMPIITSKRYQHSVEWAAELMRRQGQDESTVRRILKDYTKPLEHPPVKRNEEAQVHDKLNSGMVSNMEGTAGGERPSVVNGDSGKSGGVGDPREPLGCLQEGSGCHPTTESFEKSVREDASPLPHVCCCKQDALILQRGLHHEDGSQHIGLLHPGDRGPDHEYVLVEEAECAMSEREAAPNEELVQRNRLICRRNPYRIFEYLQLSLEEAFFLVCALGCLSIYYEKEPLTIVKLWKAFTVVQPTFRTTYMAYHYFRSKGWVPKVGLKYGTDLLLYRKGPPFYHASYSVIIELVDDHFEGSLRRPLSWKSLAALSRVSVNVSKELMLCYLIKPSTMTDKEMESPECMKRIKVQEVILSRWVSSRERSDQDDL

What was measured:
[1] = target: T1, His6-TSEN15, expressed in HEK293 cells (human); assay: pull-down
[2] = target: T2, tRNA splicing endonuclease subunit TSEN15 (human); assay: co-expression and co-purification

Row | Binder | binding [1] | binding [2]
1 | B1 | binds | 
2 | B2 | binds | 
3 | B3 | binds | 
4 | B4 |  | binds
5 | B5 |  | binds
